Test results reported in patent publication CN111171152A.
No constants are given. Whether binding was seen depends on the method and setting. Some entries that bind do so weakly or less than the wild type.

Protein sequences, listed by entry. Tags and fused reporters are not part of them. Residues count along the entry.
UniProt Q8NBP7, residues 31-692: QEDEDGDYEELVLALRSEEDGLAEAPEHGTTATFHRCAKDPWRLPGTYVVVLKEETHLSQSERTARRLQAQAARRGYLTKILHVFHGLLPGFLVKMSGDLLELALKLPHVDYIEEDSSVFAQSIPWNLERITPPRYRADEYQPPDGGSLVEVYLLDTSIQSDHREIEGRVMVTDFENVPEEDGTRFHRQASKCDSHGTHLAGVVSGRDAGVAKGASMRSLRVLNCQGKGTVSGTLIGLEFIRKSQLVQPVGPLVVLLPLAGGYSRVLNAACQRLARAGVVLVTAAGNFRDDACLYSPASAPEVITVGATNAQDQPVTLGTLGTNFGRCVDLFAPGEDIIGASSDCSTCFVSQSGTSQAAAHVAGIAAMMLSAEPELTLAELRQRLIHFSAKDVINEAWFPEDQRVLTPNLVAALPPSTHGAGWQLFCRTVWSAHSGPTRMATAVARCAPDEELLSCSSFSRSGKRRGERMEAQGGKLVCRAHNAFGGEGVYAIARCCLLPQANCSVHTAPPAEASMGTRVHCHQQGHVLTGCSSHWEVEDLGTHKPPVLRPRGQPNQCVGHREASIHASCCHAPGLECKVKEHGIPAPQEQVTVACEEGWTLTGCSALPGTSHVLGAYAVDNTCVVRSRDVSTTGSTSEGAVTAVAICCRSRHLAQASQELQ

Legend:
[1] = molecular target: 重组人PCSK9蛋白 (recombinant human proprotein convertase subtilisin kexin type 9) (human) (UniProt Q8NBP7); experiment: indirect ELISA and western blot
[2] = molecular target: 重组人PCSK9蛋白 (recombinant human proprotein convertase subtilisin kexin type 9) (human) (UniProt Q8NBP7); experiment: western blot, purified antibody 1:1000, HRP goat anti-mouse IgG
[3] = molecular target: 重组人PCSK9蛋白 (recombinant human proprotein convertase subtilisin kexin type 9) (human) (UniProt Q8NBP7); experiment: sandwich fluorescence immunochromatography

Measured: binding

B1: PCSK9-6C6 (antibody, V domains shown)
VH: EVLLVESGGGLVKPGGSLKLSCAASGFTFSAYAMSWVRQSPEKRLEWVSEISDGGYYTYYPDTVTGRFTISRDNAKNTLYLEMNSLRSEDTAMYYCARRYDGAFTYWGQGTLVTVSS
VL: DIVLTQSPGIMSASPGEKVTISCSASSSVSYMYWYQQKPGSSPKPWIYRTSNLASGVPARFSGSGSGTSYSLTISSMEAEDAATYYCQQYQSYPHTFGGGTKLEMK
binds: all assays above
